From patent US20150030595A1
These are yes or no findings as the source states them, for the method shown. In cells and extracts the contact can be indirect. Some entries that bind do so weakly or less than the wild type.

Protein sequences, listed by entry. Tags and fused reporters are not part of them. Residues count along the entry.
UniProt P27040, residues 19-536: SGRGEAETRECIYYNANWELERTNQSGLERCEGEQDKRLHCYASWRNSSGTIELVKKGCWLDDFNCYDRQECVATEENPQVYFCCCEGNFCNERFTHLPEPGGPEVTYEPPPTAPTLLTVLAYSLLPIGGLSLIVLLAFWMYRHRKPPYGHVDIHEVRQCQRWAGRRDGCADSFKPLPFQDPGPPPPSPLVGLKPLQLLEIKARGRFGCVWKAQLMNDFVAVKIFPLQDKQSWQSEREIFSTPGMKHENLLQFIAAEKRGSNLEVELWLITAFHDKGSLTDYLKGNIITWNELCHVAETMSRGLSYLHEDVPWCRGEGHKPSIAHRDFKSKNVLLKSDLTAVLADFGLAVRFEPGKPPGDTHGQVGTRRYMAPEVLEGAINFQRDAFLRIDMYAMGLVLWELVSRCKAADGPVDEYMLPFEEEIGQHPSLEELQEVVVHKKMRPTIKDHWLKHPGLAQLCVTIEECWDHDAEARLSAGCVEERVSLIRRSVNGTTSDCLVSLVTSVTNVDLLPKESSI
UniProt O08689, residues 268-376: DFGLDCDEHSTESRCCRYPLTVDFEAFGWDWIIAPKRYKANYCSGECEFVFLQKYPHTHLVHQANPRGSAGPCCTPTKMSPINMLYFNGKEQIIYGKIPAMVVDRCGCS

Tests used:
[1] = target: ACVR2B in the lysate of the myoblast C2C12 cell line (UniProt P27040); test: co-immunoprecipitation from C2C12 lysate (IP with the ACVR2B antibody, blot for myostatin); a complex, not shown to be direct
[2] = target: T1, DLK1 in the lysate of the myoblast C2C12 cell line (UniProt Q09163); test: co-immunoprecipitation from C2C12 lysate (IP with the DLK1 antibody, blot for myostatin); a complex, not shown to be direct
T1 sequence (looked up): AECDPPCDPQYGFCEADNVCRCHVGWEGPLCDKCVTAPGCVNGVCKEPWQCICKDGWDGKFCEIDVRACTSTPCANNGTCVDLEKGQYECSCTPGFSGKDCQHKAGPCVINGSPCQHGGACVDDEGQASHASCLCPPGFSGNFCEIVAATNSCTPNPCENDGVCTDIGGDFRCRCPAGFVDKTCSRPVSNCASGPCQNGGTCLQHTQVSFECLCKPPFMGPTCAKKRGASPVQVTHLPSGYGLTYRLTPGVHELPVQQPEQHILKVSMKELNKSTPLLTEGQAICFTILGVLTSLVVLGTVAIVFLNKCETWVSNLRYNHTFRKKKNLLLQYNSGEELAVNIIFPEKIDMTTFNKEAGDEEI

myostatin in the lysate of the myoblast C2C12 cell line (from UniProt O08689 268-376) (ligand)
binding [1]: binds
binding [2]: binds
